No constants are given. Whether binding was seen depends on the method and setting. Some entries that bind do so weakly or less than the wild type.

By UniProt entry, the sequences of proteins in these tests, tags left out. Where a name states a change or a piece, a line headed by the entry shows the natural chain unless it says otherwise.
UniProt Q14956: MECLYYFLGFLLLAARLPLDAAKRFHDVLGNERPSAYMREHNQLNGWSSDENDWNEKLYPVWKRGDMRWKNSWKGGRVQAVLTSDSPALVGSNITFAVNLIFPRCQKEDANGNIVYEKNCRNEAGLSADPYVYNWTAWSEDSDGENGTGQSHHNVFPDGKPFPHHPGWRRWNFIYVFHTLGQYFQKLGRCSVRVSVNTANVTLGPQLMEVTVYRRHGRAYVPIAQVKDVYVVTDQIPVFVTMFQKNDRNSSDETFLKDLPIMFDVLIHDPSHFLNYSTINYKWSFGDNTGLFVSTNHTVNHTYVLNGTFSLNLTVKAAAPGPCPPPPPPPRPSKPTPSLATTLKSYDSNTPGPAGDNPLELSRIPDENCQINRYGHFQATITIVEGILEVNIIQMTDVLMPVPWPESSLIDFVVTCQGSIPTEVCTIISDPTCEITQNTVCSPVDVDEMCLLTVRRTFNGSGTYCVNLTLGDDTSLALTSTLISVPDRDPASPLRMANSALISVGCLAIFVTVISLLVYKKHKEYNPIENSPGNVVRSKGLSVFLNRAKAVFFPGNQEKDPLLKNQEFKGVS

This experiment concerns the target GPNMB (CG56972), native full-length protein on the cell surface or in cell lysates (human) (UniProt Q14956). The experiment in a line: FACS, UACC-62 cells, Ab 1 ug/mL. In general terms: Flow cytometry measures light scatter and fluorescence of single cells or particles in a stream.

B1: Mab2.22.1 (antibody, human IgG2, V domains shown)
VH: QVQLEQSGPGLVKPSQNLSLTCTVSGGSISSGGYFWSWIRQHPGKGLEWIGYIYYSGNTYYNPSLKSRVTISVDTSKNQFSLKLSSVTAADTAVYYCARDYYYDTSGFSYRYDWYYGMDVWGQGTTVTVSS
VL: DIQLTQSPSSLSASVGDRVTITCRASQGIRNDLGWYQQKPGKAPKRLIYAASSLQNGVPSRFSGSGSGTEFTLTISSLQPEDFATYYCLQHNTYPAFGQGTKVEIKR
Consider B1, for which the binding result is “binds”.

Values taken from patent publication US20160311919A1.
